# PMC4721142, “Randomized controlled studies on the efficacy of antiarthritic agents in inhibiting cartilage degeneration and pain associated with progression of osteoarthritis in the rat” (Arthritis Research & Therapy, 2016)
# Test system: Normal human articular chondrocytes
# Experiment: Cytotoxicity to chondrogenic pellets (CellTiter-Blue)
smiles,measurement,value
"NCCCC(O)(P(=O)(O)O)P(=O)(O)O [Alendronate, Alendronate sodium]",Non-toxic range (Chondrocyte),0.625 to 40 M
